# Reference: publication PMC7819943, “Rice protein-binding microarrays: a tool to detect cis-acting elements near promoter regions in rice”
# The chains behind the UniProt entries cited, without tags or fusion partners.
# UniProt Q0JBA9, entry or part of it: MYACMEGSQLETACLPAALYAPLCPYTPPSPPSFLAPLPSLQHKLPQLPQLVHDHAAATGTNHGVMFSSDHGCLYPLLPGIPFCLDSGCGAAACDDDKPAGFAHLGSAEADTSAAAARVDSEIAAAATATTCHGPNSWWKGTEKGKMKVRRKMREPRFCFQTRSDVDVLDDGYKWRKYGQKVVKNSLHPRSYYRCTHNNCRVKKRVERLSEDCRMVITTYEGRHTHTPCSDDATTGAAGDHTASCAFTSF
# The other results are listed elsewhere or left out.
# Target: OsWRKY34 (Oryza sativa, UniProt Q0JBA9 1-250)
# Experiment: protein-binding microarray (RPBM); PBS, 2% BSA, 51.3 ng/ul salmon testes DNA, 50 uM zinc acetate, 200 nM TF, 25 C, 1 h; high values mean tight binding
# Settings: protein: recombinant; tags: N-terminal polyhistidine and DsRed monomer fusion (pET32a); label: CyDye5-dUTP incorporated in the synthesized complementary strand; 3' TTTTT single-stranded linker to array surface; dsDNA, one strand shown
# Outline: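 An Axon 4000B scanner gave the binding signal as per-feature fluorescence intensity in arbitrary units. This followed washing of a custom Agilent array that had been incubated for 1 h at 25 °C with 200 nM protein in PBS, 2% BSA, salmon testes DNA and 50 µM zinc acetate. The proteins were transcription factors fused at the N-terminus to polyhistidine and DsRed, expressed in E. coli BL21-CodonPlus and purified on Ni–NTA.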
row,Sequence,binding signal
1,GATAGAGATATCCTGCCTTCTGTCCTACCATCTTTCCATCCGGAGTCACCTAGTGCAG,9240 fluorescence intensity (a.u.)
2,ATGAAATGTTTGTCATTTCTGGTGGGGCTGTTAGTTAATTCGGAGTCACCTAGTGCAG,9970 fluorescence intensity (a.u.)
3,ATATACCAGTCTACTCGTTTTTCTTCAAGTTATTATACTACGGAGTCACCTAGTGCAG,8960 fluorescence intensity (a.u.)
4,CTTCGGTCTCGAACCGCGGCGACTTCTCCTCTTTGGGTTTCGGAGTCACCTAGTGCAG,9010 fluorescence intensity (a.u.)
5,TTCTTTTCCATGCGAGTTTTTACCTGGTCGCGCTTGGTCGCGGAGTCACCTAGTGCAG,8710 fluorescence intensity (a.u.)
6,TCTCTCTCTCTCTCTCTCTCTCTCTCTCTCTCTCTCTCTCCGGAGTCACCTAGTGCAG,8030 fluorescence intensity (a.u.)
7,ACAACAACAATTTACTTAAACTTCTGCAGGCTACTATTTCCGGAGTCACCTAGTGCAG,8360 fluorescence intensity (a.u.)
8,GGCTACCGCTCCGTCGACTTCCTCCCCTACGCGTCCCACGCGGAGTCACCTAGTGCAG,8030 fluorescence intensity (a.u.)
9,GAGGGGCATTGGTCGGTTGGTTGAATCTTGAATGGTGAGACGGAGTCACCTAGTGCAG,16000 fluorescence intensity (a.u.)
10,ATCCGAGTAATCGGGTATGATGCGCAGGGGTGGAGGGGATCGGAGTCACCTAGTGCAG,9440 fluorescence intensity (a.u.)
11,TCACATATTTTGCAGTGTCCTCGGGCAGTTTCACGTTTTCCGGAGTCACCTAGTGCAG,11700 fluorescence intensity (a.u.)
12,ATGCATTTTCTATTTCTTCTCACCCTCTTGCATTGACCCTCGGAGTCACCTAGTGCAG,8370 fluorescence intensity (a.u.)
13,TTGCCTTTTCGTCTGGGTTCTTTTCTCGGTGGCCTCTGTTCGGAGTCACCTAGTGCAG,10700 fluorescence intensity (a.u.)
14,TTTTTTTTTCTCTCGGGGTTTTTATTGCTCGAGATGTTCTCGGAGTCACCTAGTGCAG,11200 fluorescence intensity (a.u.)
15,AATTCACCATCTGCACCGATCTCCATCCTACGAGCGCCGGCGGAGTCACCTAGTGCAG,9580 fluorescence intensity (a.u.)
16,ACGTATACGTGTATTCCTCTTCTGTATTTTTCCATTTGATCGGAGTCACCTAGTGCAG,8830 fluorescence intensity (a.u.)
17,CTCTTCATTCATAATTCATCTCCACATTCTTCATTCTCCACGGAGTCACCTAGTGCAG,9490 fluorescence intensity (a.u.)
18,AAGGAGAGCGACTTGAGGGAGGGGTTGTGCTCGACGGAGTCGGAGTCACCTAGTGCAG,8040 fluorescence intensity (a.u.)
19,AGTTTTTGTCTTGTCTGTTTCCTCTGCAATCGGTCCAACTCGGAGTCACCTAGTGCAG,10700 fluorescence intensity (a.u.)
20,CCACTCCGGCGACTCCTCCGCCGCATCCCGAGCAAGCAAGCGGAGTCACCTAGTGCAG,8670 fluorescence intensity (a.u.)
21,TCTCTTTCTCTCGCTTTCTTTTTGCATAGTTTTCTTCATGCGGAGTCACCTAGTGCAG,8700 fluorescence intensity (a.u.)

# Single entries from the list.
# binding signal with GGCTACCGCTCCGTCGACTTCCTCCCCTACGCGTCCCACGCGGAGTCACCTAGTGCAG is entered as 8030 fluorescence intensity (a.u.)
# binding signal with TTGCCTTTTCGTCTGGGTTCTTTTCTCGGTGGCCTCTGTTCGGAGTCACCTAGTGCAG is entered as 10700 fluorescence intensity (a.u.)
# binding signal with AGTTTTTGTCTTGTCTGTTTCCTCTGCAATCGGTCCAACTCGGAGTCACCTAGTGCAG is entered as 10700 fluorescence intensity (a.u.)
# binding signal with TTTTTTTTTCTCTCGGGGTTTTTATTGCTCGAGATGTTCTCGGAGTCACCTAGTGCAG is entered as 11200 fluorescence intensity (a.u.)

# Remaining list, next part

row,Sequence,binding signal
1,CGCTCGCCGACTCGCGTTTTGTTTGTCACTTGTCACTAGTCGGAGTCACCTAGTGCAG,8790 fluorescence intensity (a.u.)
2,CGTGTGACCCATTTTTCGTTGGTACCAACGCGCGAGCTTGCGGAGTCACCTAGTGCAG,8280 fluorescence intensity (a.u.)
3,CTACCTTTTTAGCGATTTCTGCTCCGTCCTGCTGCTACCGCGGAGTCACCTAGTGCAG,8220 fluorescence intensity (a.u.)
4,TTTTTCTCGCCTTTTTTTCCACCGGACAACGGAAACTTCTCGGAGTCACCTAGTGCAG,9150 fluorescence intensity (a.u.)
5,CTACAATATAGTACATATATACTCGCTCCATTCCATCCCTCGGAGTCACCTAGTGCAG,8320 fluorescence intensity (a.u.)
6,AAATTTTTTGGTGTCACATCGGACGTTTGACCGGATGTCTCGGAGTCACCTAGTGCAG,8630 fluorescence intensity (a.u.)
7,ATTGATTTGCTTTTATCTAGTACTAGCTTTTTAAATCGCGCGGAGTCACCTAGTGCAG,8490 fluorescence intensity (a.u.)
8,CTCCTTCTCTGCTTGGCGGGGCGGGCGGTGGTAATAACCGCGGAGTCACCTAGTGCAG,13000 fluorescence intensity (a.u.)
9,CAGGCTTTTGTTCATTTACATGCACCATTTTCTTTCTCATCGGAGTCACCTAGTGCAG,8500 fluorescence intensity (a.u.)
10,CACACGCCCACAGCAACTATCACTCTTCATCATCATCTTCCGGAGTCACCTAGTGCAG,9200 fluorescence intensity (a.u.)
11,ATCTCTGATCCGTCCAGTTGACCCAAAGCTAGAGTCTTTCCGGAGTCACCTAGTGCAG,10700 fluorescence intensity (a.u.)
12,TATCTATTTTCTTCTTGGGATCAATGTTGAAGTTCCAAATCGGAGTCACCTAGTGCAG,8440 fluorescence intensity (a.u.)
13,GTTTCACAATGTAAGTCATTCTAGCATTTCTCACATTCATCGGAGTCACCTAGTGCAG,8890 fluorescence intensity (a.u.)
14,GATAAAACTTTACGGTGCATGTATTGGTCTCGGTCTACGACGGAGTCACCTAGTGCAG,9520 fluorescence intensity (a.u.)
15,CTCCTCGTCTCCGCTCCTCTCTCCACGTGTTGACCAGGCCCGGAGTCACCTAGTGCAG,8900 fluorescence intensity (a.u.)
16,ATAGTATTATATGCGCTTATTCTTATATGAACCATCATTACGGAGTCACCTAGTGCAG,8510 fluorescence intensity (a.u.)
17,ATCCCGACCACCGCTCCTCCGCCTCCGCCTCTCATATTTTCGGAGTCACCTAGTGCAG,12900 fluorescence intensity (a.u.)
18,CCCGTCTACAGTCCGGTCGTTTGATTTAGTCACTTGGGTTCGGAGTCACCTAGTGCAG,8900 fluorescence intensity (a.u.)
19,CCCTCTGTCCTATATCTCTTTCTGCTCTTCTGCTTCTTCTCGGAGTCACCTAGTGCAG,9090 fluorescence intensity (a.u.)
20,GCCTTTATATATACCCTTCGTCTCGGAACGTCGTCTTCTACGGAGTCACCTAGTGCAG,9660 fluorescence intensity (a.u.)
21,CTTCTCCTCTGCTCGCCCCGCCGCCGCCGCCGTCTCCGCGCGGAGTCACCTAGTGCAG,8940 fluorescence intensity (a.u.)

row,Sequence,binding signal
1,ACATCAAAATTTTCATACACACAACTTTTCTATCATATTACGGAGTCACCTAGTGCAG,10000 fluorescence intensity (a.u.)
2,AGCCTTTCTTTATAGTGGCCATTGCCTTACTTGTTGCACTCGGAGTCACCTAGTGCAG,9440 fluorescence intensity (a.u.)
3,TCATACACAACTTTTCAGTCACATCATCTCCAATTTCAACCGGAGTCACCTAGTGCAG,8620 fluorescence intensity (a.u.)
4,TGATTGTTCAGGCTAAATTTGCTACTCCGTCCGATTCATACGGAGTCACCTAGTGCAG,8840 fluorescence intensity (a.u.)
5,GCCACCACATTTAGCGCCCGCCGCCACCGCTGCCGCCGCCCGGAGTCACCTAGTGCAG,8360 fluorescence intensity (a.u.)
6,GTACACTCCTCGATCGCCTCGATTCTCTCTTCCGATTCGACGGAGTCACCTAGTGCAG,8630 fluorescence intensity (a.u.)
7,ATCGTTTTCTGTCCGCTTTGATTGTTATTGACCTAGCCACCGGAGTCACCTAGTGCAG,10500 fluorescence intensity (a.u.)
8,TCATAATCTCATTCATGTACCAACCACACATCTCCATCATCGGAGTCACCTAGTGCAG,9270 fluorescence intensity (a.u.)
9,CCTTTACAGGTCAGTATTTTCACAAACAGTTACAGAATCACGGAGTCACCTAGTGCAG,9080 fluorescence intensity (a.u.)
10,GTGGAGGTGTTAAGGATAGTATGTCTAGAGGTATTTTAGACGGAGTCACCTAGTGCAG,8350 fluorescence intensity (a.u.)
11,GCCTTTTGGCTAAGATCAAGTGTAGTATCTGTTCTTATCACGGAGTCACCTAGTGCAG,8650 fluorescence intensity (a.u.)
12,GTTAGGTAGTGTTTGGTTGGAGGGATATCCCGGGATGGGACGGAGTCACCTAGTGCAG,9000 fluorescence intensity (a.u.)
13,ACGGGGCTTTTAACTATTTGTCACTCTTATGAATGGTGTTCGGAGTCACCTAGTGCAG,10200 fluorescence intensity (a.u.)
14,CGTCTGTTGACACCGCCGCCACCACCGCCGCCGCCGTCCCCGGAGTCACCTAGTGCAG,8720 fluorescence intensity (a.u.)
15,TACATTCATCTCGCCTTTTCTCATCTGCTTTGGCCTACCGCGGAGTCACCTAGTGCAG,8230 fluorescence intensity (a.u.)
16,GCATATTTATGAAGTCATAGCTTCATTACAGCCAGCTTGTCGGAGTCACCTAGTGCAG,8360 fluorescence intensity (a.u.)
17,GGTCTGCAGTTGGCTATCCATTTCTTTCATGTGAAGACAGCGGAGTCACCTAGTGCAG,8400 fluorescence intensity (a.u.)
18,CTCCCTCCTTTTCTAAATGTTTGACACCATTGACTTTTTTCGGAGTCACCTAGTGCAG,8470 fluorescence intensity (a.u.)
19,CTGACACGTAGGCCCCACTGTCATTGACCGTTACAACTCACGGAGTCACCTAGTGCAG,8110 fluorescence intensity (a.u.)
20,CTTCCTCTCTTCTCTTTCTCTCTTCTTCCCCATCCCGTTACGGAGTCACCTAGTGCAG,8170 fluorescence intensity (a.u.)
21,GGTAAAACATGTTGGATTTTATTTTGGTGGGATGTGCAATCGGAGTCACCTAGTGCAG,9620 fluorescence intensity (a.u.)

row,Sequence,binding signal
1,AACTGTCACCGGCCGACGTTAATGCCATGCCGCCGCGTACCGGAGTCACCTAGTGCAG,8250 fluorescence intensity (a.u.)
2,GGGAACGGTTTTGTTAGTTGAGGGATGCCGGTATCTGGTTCGGAGTCACCTAGTGCAG,8890 fluorescence intensity (a.u.)
3,ACTTCTCGTCTTCCTCTCCTCTCTCTCGTTTCGATTCCCCCGGAGTCACCTAGTGCAG,8600 fluorescence intensity (a.u.)
4,ATCTATAAGCGCTCACGCGCTATTTTGCTTTTGGTCCGAACGGAGTCACCTAGTGCAG,8620 fluorescence intensity (a.u.)
5,GTCAAACTTGCTCGATCTCTTGCTCATCTGCGTGCACCTCCGGAGTCACCTAGTGCAG,8610 fluorescence intensity (a.u.)
6,CTATTGTTCTCTAGCTGTTGTTCTCTAGTGTATTGTCCATCGGAGTCACCTAGTGCAG,9410 fluorescence intensity (a.u.)
7,GGGCATCTCTTTCTTTCGCGTTCGGCTTCCTTCCCTGTTTCGGAGTCACCTAGTGCAG,11200 fluorescence intensity (a.u.)
8,GTTGTTTATCGTTTTCTTGTTATTTTATGGATTTTATTGACGGAGTCACCTAGTGCAG,9860 fluorescence intensity (a.u.)
9,AAAAAATACTATCTATGTACCCCTCCGTTTCTTTTTATTTCGGAGTCACCTAGTGCAG,8890 fluorescence intensity (a.u.)
10,GCCCACGTCGTTCCCAAGCATATGCCCTAATCGGCTTTAACGGAGTCACCTAGTGCAG,8300 fluorescence intensity (a.u.)
11,ATAGCTCATGCAACACAAGCCATTAATCTAATCTTGCATTCGGAGTCACCTAGTGCAG,8040 fluorescence intensity (a.u.)
12,TACTGCTTCTCAGACATTCTTGTTGCACTGGAGATCCAGACGGAGTCACCTAGTGCAG,8780 fluorescence intensity (a.u.)
13,GGAAGTTTTTGTCCTACTAGTGTGCAACCGTGCATCTATTCGGAGTCACCTAGTGCAG,8250 fluorescence intensity (a.u.)
14,CTAGCACTACTCCTACTTTATCCGTTTCACAATATAGACACGGAGTCACCTAGTGCAG,8950 fluorescence intensity (a.u.)
15,ATTACGGTTGCTCCTTTGTTTACTTTTTATGTTTAAAGCTCGGAGTCACCTAGTGCAG,10800 fluorescence intensity (a.u.)
16,CAAGCGTTCACACCTTCGGCCTGGCCTTTTTTATACTCCCCGGAGTCACCTAGTGCAG,9670 fluorescence intensity (a.u.)
17,GAGCATCAGAGCACCGTTTCTTTCCACCGCTCTCTCCCGACGGAGTCACCTAGTGCAG,9250 fluorescence intensity (a.u.)
18,TGTGGTTTTTCCTGTCTACGTTTTTACACCCATGTTCTACCGGAGTCACCTAGTGCAG,9780 fluorescence intensity (a.u.)
19,TTGCCATCTCTATCCACCACTGCCTCCCCTCCAAGGCACGCGGAGTCACCTAGTGCAG,8340 fluorescence intensity (a.u.)
20,AAAAAAGTCAACGGTATTAAATATTTAGGGATGTGGAGAGCGGAGTCACCTAGTGCAG,12200 fluorescence intensity (a.u.)
21,CGTCCCGCACAGCGCTCCTCTCTCCCGTGCGGCGCTCGTCCGGAGTCACCTAGTGCAG,8630 fluorescence intensity (a.u.)
